Data as given in PubChem BioAssay AID1508588 (Peter MacCallum Cancer Centre, 2020).

Aim: 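Which gene losses make BRAF-mutant melanoma cells more responsive to vemurafenib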 (primary screen)
System: human WM266.4 melanoma cells (BRAF V600 mutant)
Knock-down reagent: siRNA pool against human genes, 40 nM
Timing: 96 h from transfection to read-out
Conditions: vemurafenib 300 nM (about IC25), added 48 h after transfection, for 48 h; comparison arm got DMSO vehicle only
Read-out: 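Ratios to non-targeting siRNA for cell gain, counted as DAPI nuclei after minus before drug and averaged over two replicates, and for absorbance-read medium lactate per cell; both binned into fold-change classes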
Direction: cell gain with vemurafenib: higher = more cell gain than with non-targeting siRNA; lactate per cell with vemurafenib: higher = more lactate made per cell
Hit rule: 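Enhancement is called by pairing each knock-down's vehicle-arm and drug-arm fold-change classes for viability or glycolysis; which class combinations qualify is not given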
Meaning of the calls: active = enhances vemurafenib effect; inactive = no enhancement seen
The deposit covers about 18,000 reagents; this is an unselected part. 790 of them (4.4%) count as active. 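Calls rest on a combination of fold-change classes in drug and vehicle arms, not all shown here.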

gene | cell gain with vemurafenib | lactate per cell with vemurafenib | call
RBX1 | 1.03 | 0.7 | inactive
SORT1 | -0.02 | 2.66 | inactive
PRIMA1 | 0.75 | 0.88 | inactive
RAB20 | 0.61 | 0.42 | inactive
H2BC4 | 0.74 | 0.13 | active
IFIT5 | 0.58 | 0.74 | inactive
IP6K1 | 0.88 | 0.98 | inactive
HUS1B | 0.18 | 1.31 | inactive
RBM6 | 0.52 | 0.76 | inactive
HLA-A | 0.7 | 0.67 | inactive
RAB3B | 0.38 | 0.76 | inactive
TSKU | 0.84 | 0.73 | inactive
SPAG9 | -0.08 | 1.81 | inactive
KCNJ5-AS1 | 0.38 | 1.15 | inactive
TMEM147 | 0.51 | 0.72 | inactive
SMARCD2 | 0.44 | 1.2 | inactive
PNMA3 | 0.48 | 0.8 | inactive
OR2W1 | 0.26 | 1.08 | inactive
ACER3 | 0.77 | 0.58 | inactive
RSAD2 | 0.49 | 0.34 | inactive
HTRA1 | 0.07 | 4.22 | inactive
COLEC11 | 0.31 | 1.63 | inactive
SVEP1 | 1.01 | 0.42 | inactive
NAGS | 0.66 | 1.44 | inactive
UPP1 | 0.43 | 1.87 | inactive
DHX33 | 0.42 | 1.18 | inactive

Ordered by “lactate per cell with vemurafenib” (high to low): 2 of the entries above
gene | cell gain with vemurafenib | lactate per cell with vemurafenib | call
ACER3 | 0.77 | 0.58 | inactive
RSAD2 | 0.49 | 0.34 | inactive

The list goes on.
gene | cell gain with vemurafenib | lactate per cell with vemurafenib | call
FILIP1L | 0.75 | 0.68 | inactive
RHOV | 0.61 | 0.82 | inactive
ITGB6 | 0.35 | 1.09 | inactive
ALG9 | 1.03 | 1 | inactive
FGR | 0.33 | 1.4 | inactive
TAL1 | 0.72 | 1.27 | inactive
TCHHL1 | 0.25 | 1.14 | inactive
COMMD3 | 0.6 | 1.06 | inactive
ADH4 | 0.5 | 1.88 | inactive
CCNJL | 0.22 | 2.12 | inactive
ANAPC11 | 0.98 | 1.17 | inactive
OSBP | 0.67 | 0.9 | inactive
COX7B2 | 0.56 | 0.56 | inactive
HTR1B | 0.67 | 0.57 | inactive
MAT2A | 0.05 | 1.7 | inactive
TMEM184A | 0.57 | 0.31 | active
APOBEC3G | 0.55 | 1.52 | inactive
HIBCH | 0.8 | 0.54 | inactive
PSEN1 | 0.46 | 0.72 | inactive
CYB561D2 | 0.72 | 0.69 | inactive
CRIM1 | 0.62 | 0.8 | inactive
PRTG | 0.7 | 0.32 | inactive
SETD4 | 0.28 | 0.76 | inactive
PILRA | 0.51 | 0.91 | inactive
FSD1L | 0.02 | 2.79 | inactive
KHDRBS3 | 1.18 | 1.05 | inactive
BCL6 | 0.91 | 0.45 | inactive
ZKSCAN1 | 0.97 | 0.76 | inactive
DRD3 | 0.61 | 1 | inactive
GJB6 | 0.56 | 0.82 | inactive
PCNA | 0.26 | 1.56 | inactive
